The experiment concerns Staphylococcus aureus. Nature of the experiment: Antibacterial activity against Staphylococcus aureus 1199B overexpressing NorA assessed as growth inhibition after 18 hr by broth checkerboard method. The experiment is classed as functional.

The MIC is the smallest concentration in the dilution series that meets the test's criterion for growth inhibition. Regarding `O=C(O)c1cn(C2CC2)c2cc(N3CCNCC3)c(F)cc2c1=O` [CIPROFLOXACIN], the minimum inhibitory concentration (MIC) is 8 µg/mL.

(Values after ChEMBL document CHEMBL3044639, “Synthesis and biologic activities of some novel heterocyclic chalcone derivatives” (Med Chem Res, 2013).)
